Data taken from PubChem BioAssay AID463188, deposited by University of Pittsburgh Molecular Library Screening Center (2010).

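Counterscreen z-score for each compound in a recombinant Hck-YEEI:Nef Z-Lyte FRET kinase setup using a p-Tyr peptide, with a 50 min kinase step and 60 min development.
Compounds were tested at a single concentration of 10 µM.
The number is a z-score for the p-Tyr peptide counterscreen; higher values mean a stronger counterscreen signal, and values above 3 mark a compound as likely interfering.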

Common to all entries: measured here: p-Tyr peptide counterscreen.
This is a side read-out of the assay, for part of the compounds, not drawn at random.

| # | SMILES | z-score |
|---|---|---|
| 1 | `COc1ccc(-c2ccc(/C=N/NC(=O)Cc3nnc(N)s3)o2)cc1Cl` | -0.9248 |
| 2 | `CC/C(C)=N/Nc1nc(-c2cc3cccc(OC)c3oc2=O)cs1` | -1.122 |
| 3 | `CCOC(=O)c1cc(CC)sc1NC(=O)COc1ccc2c(C)cc(=O)oc2c1` | 1.143 |
| 4 | `O=C1CSC(=S)N1/N=C/c1ccc(O)c(O)c1O` | -1.42 |
| 5 | `Nc1cc(C(=O)O)c(N)c2c1C(=O)c1ccccc1C2=O` | -1.804 |
| 6 | `O=C(NC(=S)Nc1ccc(-c2nc3ncccc3o2)cc1)c1ccccc1F` | -0.7128 |
| 7 | `Cc1ccc(NC(=O)CSc2nc3ccccc3c3nc(CCn4cncc4C)nn23)c(C)c1` | 1.961 |
| 8 | `O=C(O)CSc1cc(C(=O)c2ccccc2O)cn2c(=O)c3c(-c4ccccc4)csc3nc12` | 1.218 |
| 9 | `COc1ccccc1CNC(=O)c1c(N)n(CCCN2CCOCC2)c2nc3ccccc3nc12` | 71.96 |
| 10 | `CCC(C)C(NC(=O)c1ccccc1NC(=O)c1ccc(OC)cc1)C(=O)NCc1ccco1` (centres unmarked) | 1.38 |
| 11 | `O=C(O)c1ccc(-n2cccc2/C=N\NC(=O)c2cc3cc(Br)ccc3o2)cc1` | -1.306 |
| 12 | `O=C(Cn1c2ccc(F)cc2c2nc3n(c(=O)c21)CCS3)Nc1ccc(Cl)cc1F` | -0.0398 |
| 13 | `COC(OC)c1ccnc(-c2ccc(OC(=O)c3ccccc3)cc2)n1` | -1.89 |
| 14 | `O=C1CN(C(=O)COC(=O)/C=C/c2ccco2)c2ccccc2N1` | -0.0713 |
| 15 | `O=C1NC(=S)NC(=O)C1=Cc1ccc2c(c1)CCN2CCCCl` | 1.137 |
| 16 | `CN(C)c1ccc(/C=C/C=C2/C(=O)NC(=O)N(c3ccccc3)C2=O)cc1` | -0.3987 |
| 17 | `Clc1ccc(/C=N/Nc2ncnc3nc[nH]c23)cc1` | -1.363 |
| 18 | `Cc1ccc(-c2nc3c(c(=O)[nH]c(=O)n3Cc3ccccc3)n2C)s1` | -1.79 |
| 19 | `O=C(OCC(=O)N1CCN(C(=O)c2ccco2)CC1)c1cc(-c2ccc(Cl)c(Cl)c2Cl)nc2ccccc12` | -0.4159 |
| 20 | `COc1ccc(-c2csc(NC(=S)NC(=O)/C=C/c3ccco3)n2)cc1Br` | -1.439 |
| 21 | `CC(C)Nc1ccc(Nc2ccnc3cc4ccccc4cc23)cc1` | 0.6326 |
| 22 | `COc1ccccc1/C=N\Nc1cn[nH]c(=O)c1Cl` | 0.4417 |
| 23 | `CC(C)C1Cc2[nH]c(=O)c(C(=O)O)cc2CO1` (centres unmarked) | -0.2207 |
| 24 | `COc1cccc(-n2c(C)c3c(OC)cccc(=O)c3c2C)c1` | -2.357 |
| 25 | `Cc1c(N=C2C=CC(=O)c3ccccc32)c(=O)n(-c2ccccc2)n1C` | -1.071 |
| 26 | `N#Cc1c2nc3ccccc3nc2n2cc(NC(=O)c3ccc(F)cc3)ccc12` | 0.1964 |
| 27 | `COCCCn1c(N)c(C(=O)NCCC(C)C)c2nc3ccccc3nc21` | 40.6 |
| 28 | `O=C1NC(=O)N(c2ccc(Cl)cc2)C(=O)/C1=C/c1coc2ccc(O)cc2c1=O` | -1.468 |
| 29 | `COc1c(O)ccc(/C=C(\C#N)c2nc3ccccc3[nH]2)c1[N+](=O)[O-]` | -2.016 |
| 30 | `Clc1cccc(Cl)c1CNc1ccc(N2CCCC2)cc1` | -1.929 |
| 31 | `Cc1ccc(C2=NC(=O)/C(=C/c3cc(O)c(O)c(Br)c3)S2)cc1` | -1.192 |
| 32 | `COc1ccc(C(=O)CSc2nnc(-c3ccco3)c(-c3ccco3)n2)cc1` | -1.974 |
| 33 | `CCCSC1=N/C(=C\c2ccc([N+](=O)[O-])o2)C(=O)S1` | -1.813 |
| 34 | `COC(=O)C1=CN(CCOC23CC4CC(CC(C4)C2)C3)C=C(C(=O)OC)C1c1ccsc1` | 21.04 |
| 35 | `CCN(CC)c1ccc(/C=C2/C(=O)c3ccc(C(=O)O)cc3C2=O)cc1` | 0.3238 |
| 36 | `Cc1ccc(-c2csc(Nc3ccc(C(=O)O)cc3)[n+]2Cc2ccccc2)cc1` | 0.2656 |
| 37 | `COCc1cc(C)nc(N/N=C/c2ccc(-c3ccc(Cl)cc3[N+](=O)[O-])o2)c1C#N` | 1.757 |
| 38 | `CCOC(=O)c1c(NC(=O)N/N=C/c2ccc(O)c(OC)c2)sc(C(C)=O)c1C` | -1.668 |
| 39 | `N#Cc1c(NC(=O)CN2CCN(S(=O)(=O)c3ccc4c(c3)OCCO4)CC2)sc2c1CCC2` | 2.318 |
| 40 | `Nc1c(C(=O)NCCN2CCOCC2)c2nc3ccccc3nc2n1CCc1ccccc1F` | 65.66 |
| 41 | `CCCCn1c(NS(=O)(=O)c2ccc(C)cc2)c(S(=O)(=O)c2ccccc2)c2nc3ccccc3nc21` | 1.199 |
| 42 | `Cc1ccc(-c2nnc(-c3ccc(NC(=O)c4ccco4)cc3)o2)cc1` | 1.828 |
| 43 | `CCOC(=O)c1nnn2c1nc(Nc1cccc(C(F)(F)F)c1)c1ccccc12` | -1.902 |
| 44 | `c1ccc(-c2nccc(-c3ccc(-n4cnc5ccccc54)cc3)n2)cc1` | -0.925 |
| 45 | `COc1cc2oc(-c3ccc(O)cc3)cc(=O)c2c(O)c1OC` | -1.268 |
| 46 | `Cc1cccc2c(SCC(=O)NCC3CCCO3)nc(-c3ccc(F)cc3)nc12` (centres unmarked) | 4.506 |

Some entries from above, unchanged:

SMILES,z-score
CCN(CC)c1ccc(/C=C2/C(=O)c3ccc(C(=O)O)cc3C2=O)cc1,0.3238
Cc1ccc(C2=NC(=O)/C(=C/c3cc(O)c(O)c(Br)c3)S2)cc1,-1.192
COc1cccc(-n2c(C)c3c(OC)cccc(=O)c3c2C)c1,-2.357